The supplement of paper PMC8728848
The list shows a part of the results.

Legend:
[1] = molecular target: Neu5Gc(a2-8)Neu5Gc(a2-6)Gal(b1-4)GlcNAc; test: glycan array binding signal (z-score within array); higher = stronger binding; conditions: glycan notation: IUPAC condensed, linker removed
Summary of the method: (§1)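 Negative Z-scores can be read as non-binding. The Z-score is calculated within each array and then averaged across arrays of one protein sequence at different concentrations or buffers and across linkers. Arrays, 3228 in all, were curated from the Consortium for Functional Glycomics database and kept only where the protein sequence was available.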

[2] = molecular target: Neu5Gc(b2-6)Gal(b1-4)GlcNAc; test: as above; conditions: glycan notation: IUPAC condensed, linker removed
Summary of the method: as §1

B1: Thrombomodulin Lectin (Mus musculus) (protein)
chain: LSALAKLQPTGSQCVEHECFALFQGPATFLDASQACQRLQGHLMTVRSSVAADVISLLLSQSSMDLGPWIGLQLPQGCDDPVHLGPLRGFQWVTGDNHTSYSRWARPNDQTAPLCGPLCVTVSTATEAAPGEPAWEEKPCETETQGFLCEFYFTASCRVDPIPVREDTKEEEGAGEPPVSPTPGSPTGPPSARPVLDEPRVPITQNPCPPLKECPPCAAPDLEGGPSVFIFPPKIKDVLMISLSPMVTCVVVDVSEDDPDVQISWFVNNVEVHTAQTQTHREDYNSTLRVVSALPIQHQDWMSGKAFACAVNNRALPSPIEKTISKPRGPVRAPQVYVLPPPAEEMTKKEFSLTCMITGFLPAEIAVDWTSNGRTEQNYKNTATVLDSDGSYFMYSKLRVQKSTWERGSLFACSVVHEGLHNHLTTKTISRSLGK
glycan array binding signal (z-score) [1]: 0.139
glycan array binding signal (z-score) [2]: 0.767
